Measurements: PubChem BioAssay AID720524 (National Center for Advancing Translational Sciences (NCATS), 2013)
The campaign covered roughly 1,400 compounds. About 1,000 (71%) were called active. The set was probably picked from earlier hits. Inconclusive results, whose numbers are uncertain, are shown with a selection of clear calls. Calls follow the shape of the dose curve; as a rule, active = well fitted inhibition curve with a large enough effect; inconclusive = small, poorly fitted or top-dose-only effect; inactive = no such curve, though single readings can be large or run the other way. Where the call is inconclusive, the potency comes from a doubtful curve fit.

Assay: Nrf2 qHTS screen for inhibitors: Nrf2 A549 ARE-Fluc Confirmation Assay for Hit Validation; also: nearly all actives have a fitted effect of over 65% in size
Settings: A549 ARE-firefly luciferase reporter, luminescence; series mostly up to 46.1 µM
Summary of the method: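 A549 ARE-firefly luciferase cells (5000/well) dosed 2 h after plating, then incubated 18-24 h at 37C, 5% CO2. Decreased BugLite luminescence signals Nrf2 inhibition; CellTiter Fluor read first for cytotoxicity. Data normalized to controls.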
Potency is read from the fitted curve at half-maximal effect.

SMILES	Potency
CCN(CC)S(=O)(=O)c1ccc(/C=C/C(=O)Nc2ccc(F)c(F)c2F)cc1	inconclusive: 2.59 µM [inhibitor, full curve]
O=C(Nc1cccc(S(=O)(=O)Nc2ccc(Cl)cc2)c1)c1ccc(Cl)nc1	active: 4.11 µM
CN(Cc1ccc(Cl)c(Cl)c1)C(=O)c1cccc(S(=O)(=O)N2CCN(Cc3ccccc3)CC2)c1	inconclusive: 29.1 µM [inhibitor, single point]
CC(C)NC(=O)C1CCN(C(=O)c2cc3sccc3n2Cc2ccc(Cl)cc2)CC1	active: 4.11 µM
O=c1[nH]c(SCc2cccc(F)c2)nc2ccccc12	inactive
O=C(/C=C/c1cccs1)NC(=S)Nc1ccc(S(=O)(=O)Nc2ccccc2C(F)(F)F)cc1	inactive
NS(=O)(=O)c1ccc(CCNc2ncnc3sccc23)cc1	inconclusive: 18.4 µM [inhibitor, single point]
O=C(Nc1ccc(C(=O)NC2CCCCC2)cc1)c1cccnc1	inconclusive: 1.3 µM [inhibitor, full curve, poor fit]
CC/C(=N/NC(=O)c1ccc2c(c1)OCO2)c1ccccc1O	inactive
Brc1c(CSc2nncc3ccccc23)nc2ccccn12	active: 6.51 µM
CN(c1ccccc1)c1nc(C#N)nc(N2CCOCC2)n1	inconclusive: 6.51 µM [inhibitor, partial curve]
Cc1cc(C)nc(SCC(=O)Nc2ccnc3ccccc23)n1	inactive
CC(=O)c1ccc(N2CCN(S(=O)(=O)c3ccc4c(c3)CC(C)N4C(C)=O)CC2)cc1 (stereo unspecified)	inactive
Cc1cc(C)cc(NS(=O)(=O)c2ccc(Oc3ncc(C(F)(F)F)cc3Cl)cc2)c1	inconclusive: 20.6 µM [inhibitor, single point]
COc1ccccc1NS(=O)(=O)c1cc(NC(=O)CCC(=O)c2cccs2)ccc1Cl	inconclusive: 2.91 µM [inhibitor, full curve, poor fit]
COc1ccc(C(=O)C2CCCN(Cc3cnc(N4CCOCC4)s3)C2)c(OC)c1 (stereo unspecified)	inactive
CC[N+](C)(CC)CCOC(=O)C(O)(c1ccccc1)C1CCCCC1 (stereo unspecified)	inconclusive: 18.4 µM [inhibitor, partial curve, poor fit]
CCn1c(SCC(=O)Nc2cccc(OC)c2)nc2ccccc2c1=O	inactive
CN(C)c1ccc(-c2n(C)c3ccccc3[n+]2C)cc1	inconclusive: 1.16 µM [inhibitor, full curve]
Clc1ccc(-c2noc(CSc3nnc(-c4ccncc4)n3-c3ccccc3)n2)cc1	active: 13 µM
COc1ccc(CNC(=O)c2cccc(N3CCCS3(=O)=O)c2)cc1OC	inconclusive: 6.51 µM [inhibitor, full curve, poor fit]
O=C(Nc1cccc(S(=O)(=O)C(F)F)c1)c1ccc(S(=O)(=O)N2CCCC2)cc1	inconclusive: 8.2 µM [inhibitor, partial curve]

SMILES	Potency
COc1ccc(-c2csc(NC(=O)c3ccc(S(=O)(=O)N4CCc5ccccc5C4)cc3)n2)cc1	inactive
CCc1ccccc1OCC(=O)Nc1nc(-c2cccnc2)cs1	inconclusive: 20.6 µM [inhibitor, single point]
CCc1ccc(-n2nc3ccc(NC(=O)COc4ccc(OC)cc4)cc3n2)cc1	inactive
CC[n+]1ccc(/C=C/c2c[nH]c3ccccc23)cc1	active: 4.61 µM
O=S(=O)(c1ccc(NC(=S)NCCC(c2ccccc2)c2ccccc2)cc1)N1CCOCC1	inconclusive: 29.1 µM [inhibitor, single point]
Cc1ccc(NC(=S)NC(=O)c2ccc(F)cc2)cc1S(=O)(=O)Nc1ccccc1Cl	inconclusive: 20.6 µM [inhibitor, single point]
COc1cccc(-c2ncc3ccccc3c2COC(=O)N2CCCCC2)c1	inconclusive: 5.17 µM [inhibitor, partial curve]
O=C(O)CSc1cc(NS(=O)(=O)c2ccc(Br)cc2)c2ccccc2c1O	inactive
CCOC(=O)N1CCc2c(sc(NC(=O)c3ccc(S(=O)(=O)N4CCCC4)cc3)c2C#N)C1	active: 7.31 µM
O=C(Nc1c(F)cccc1F)c1cnc(N2CCN(c3ccccn3)CC2)c2ccccc12	inconclusive: 18.4 µM [inhibitor, single point]
CC(C)NS(=O)(=O)c1ccc(NC(=S)NC(=O)c2ccc(-c3ccccc3)cc2)cc1	active: 4.61 µM
Cc1cc(C)c2oc(-c3ccc(NC(=O)c4cc(Br)ccc4Cl)cc3)nc2c1	active: 7.31 µM
Cc1ccc(CCNc2ncnc(Cl)c2N)cc1	inconclusive: 3.66 µM [inhibitor, full curve]
CC1(C)O[C@@H]2C[C@H]3[C@@H]4CCC5=CC(=O)CC[C@]5(C)[C@@]4(F)[C@@H](O)C[C@]3(C)[C@]2(C(=O)CCl)O1	active: 0.0082 µM
COc1ccc(CC(=O)Nc2ccncc2Cl)cc1	inconclusive: 23.1 µM [inhibitor, single point]
COc1cc(CNCc2ccc(OC)cc2OC)cc(OC)c1	inconclusive: 6.51 µM [inhibitor, full curve]
N#Cc1cc(-c2ccccc2)[nH]c1-c1nccc2ccccc12	inconclusive: 16.4 µM [inhibitor, single point]
CC1=C(C(=O)OC2CCCCC2)C(c2cccnc2)n2nnnc2N1 (stereo unspecified)	inconclusive: 29.1 µM [inhibitor, single point]
COc1ccc(C(O)c2nc3ccccc3n2C)cc1OC (stereo unspecified)	inconclusive: 8.2 µM [inhibitor, partial curve, poor fit]
C=CCOc1ccc(CN(C)C(=O)c2ccc(CNS(=O)(=O)c3ccc(C)c(C)c3)cc2)cc1	inconclusive: 16.4 µM [inhibitor, single point]
CCN1/C(=C\c2ccc3cc(C)ccc3[n+]2CC)Sc2cc(C)c(C)cc21	active: 1.84 µM
COc1ccc(C(=O)N/N=C(\c2ccccc2)c2ccccn2)cc1	inconclusive: 29.1 µM [inhibitor, single point]

SMILES	Potency
Cc1nc2ccc(NC(=O)c3ccc(Cl)c(S(=O)(=O)N(C)c4ccccc4)c3)cc2s1	inconclusive: 16.4 µM [inhibitor, single point]
COc1ccc(S(=O)(=O)N(C(=O)c2ccncc2)c2ccc3oc(C)c(C(C)=O)c3c2)cc1	inconclusive: 29.1 µM [inhibitor, single point]
CCC(C)N1CCC2(CC1)N=c1c(c3c4c5c(C)c(O)c3c(O)c1=NC(=O)C(C)=CC=C[C@H](C)[C@H](O)[C@@H](C)[C@@H](O)[C@@H](C)[C@H](OC(C)=O)[C@H](C)[C@@H](OC)C=CO[C@@](C)(O5)C4=O)N2 (stereo partly specified)	inconclusive: 16.4 µM [inhibitor, single point]
CC(C)(C)c1cc(C(=O)Nc2cccnc2)cc(C(=O)Nc2cccnc2)c1	inconclusive: 6.51 µM [inhibitor, full curve, poor fit]
Cc1cc(C)cc(C(=O)NC(=S)Nc2ccc(-c3cc4ccccc4oc3=O)cc2)c1	inconclusive: 13 µM [inhibitor, partial curve, poor fit]
Cc1ccc(C(=O)N2CCN(c3ccc(NC(=O)c4ccc5c(c4)OCCO5)cc3)CC2)cc1	inconclusive: 29.1 µM [inhibitor, single point]
O=C(NCCCn1ccnc1)c1ccc(N2CCCCCC2)c([N+](=O)[O-])c1	inactive
N=c1ccn(Cc2ccc(F)cc2)cc1	active: 23.1 µM
O=C(Nc1nc(-c2cccs2)cs1)c1ccc(S(=O)(=O)N2CCCC2)cc1	inconclusive: 18.4 µM [inhibitor, single point]
CC(Sc1nc2ccccc2c(=O)n1C)C(=O)Nc1ccc2c(c1)OCCO2 (stereo unspecified)	inconclusive: 2.31 µM [inhibitor, full curve]
Cc1ccc(OCC(=O)NCCCNC(=O)c2cccnc2)cc1	inactive
CC(C)(C)n1ncc2c(=O)n(Cc3ccc(C(=O)c4ccccc4)cc3)cnc21	active: 1.3 µM
Cc1ccccc1OCCn1c(C)nc2ccccc21	inconclusive: 16.4 µM [inhibitor, partial curve, poor fit]
Cc1cccc(N2CCN(C(=O)CCNS(=O)(=O)c3ccc4c(c3)CCC(=O)N4)CC2)c1C	inconclusive: 8.2 µM [inhibitor, partial curve]
CCCC(=O)Nc1nc(C)c(-c2csc(Nc3ccc(Cl)cc3)n2)s1	inconclusive: 29.1 µM [inhibitor, single point]
O=C(CSc1c2c(nc3ccc(Cl)cc13)CCCC2)N1CCN(c2cccc(Cl)c2)CC1	inconclusive: 18.4 µM [inhibitor, single point]
CCN(CC)S(=O)(=O)c1cc(NC(=O)C(=O)c2c(-c3ccccc3)cc3ccccn23)ccc1C	inconclusive: 29.1 µM [inhibitor, single point]
COc1ccc(C)cc1NC(=O)CSc1ccc(-c2sc(C)nc2C)nn1	inconclusive: 23.1 µM [inhibitor, partial curve]
Clc1cccc(Cl)c1C[n+]1cccc2ccccc21	inconclusive: 4.61 µM [inhibitor, full curve]
Cc1cc(C)c(S(=O)(=O)NCc2ccncc2)c(C)c1	active: 0.206 µM
COc1ccc(-c2nc(CSCC(=O)N3CCN(c4ccccc4)CC3)c(C)o2)cc1	inconclusive: 18.4 µM [inhibitor, single point]
CC(C(=O)Nc1ccc(O)cc1)c1cccc(C(=O)c2ccccc2)c1 (stereo unspecified)	inconclusive: 29.1 µM [inhibitor, single point]

Rewritten in markdown: 12 of the compounds above.

| SMILES | Potency |
| --- | --- |
| Cc1nc2ccc(NC(=O)c3ccc(Cl)c(S(=O)(=O)N(C)c4ccccc4)c3)cc2s1 | inconclusive: 16.4 µM [inhibitor, single point] |
| COc1ccc(S(=O)(=O)N(C(=O)c2ccncc2)c2ccc3oc(C)c(C(C)=O)c3c2)cc1 | inconclusive: 29.1 µM [inhibitor, single point] |
| CC(C)(C)c1cc(C(=O)Nc2cccnc2)cc(C(=O)Nc2cccnc2)c1 | inconclusive: 6.51 µM [inhibitor, full curve, poor fit] |
| Cc1cc(C)cc(C(=O)NC(=S)Nc2ccc(-c3cc4ccccc4oc3=O)cc2)c1 | inconclusive: 13 µM [inhibitor, partial curve, poor fit] |
| Cc1ccc(C(=O)N2CCN(c3ccc(NC(=O)c4ccc5c(c4)OCCO5)cc3)CC2)cc1 | inconclusive: 29.1 µM [inhibitor, single point] |
| O=C(NCCCn1ccnc1)c1ccc(N2CCCCCC2)c([N+](=O)[O-])c1 | inactive |
| N=c1ccn(Cc2ccc(F)cc2)cc1 | active: 23.1 µM |
| O=C(Nc1nc(-c2cccs2)cs1)c1ccc(S(=O)(=O)N2CCCC2)cc1 | inconclusive: 18.4 µM [inhibitor, single point] |
| CC(Sc1nc2ccccc2c(=O)n1C)C(=O)Nc1ccc2c(c1)OCCO2 (stereo unspecified) | inconclusive: 2.31 µM [inhibitor, full curve] |
| CCN(CC)S(=O)(=O)c1cc(NC(=O)C(=O)c2c(-c3ccccc3)cc3ccccn23)ccc1C | inconclusive: 29.1 µM [inhibitor, single point] |
| Clc1cccc(Cl)c1C[n+]1cccc2ccccc21 | inconclusive: 4.61 µM [inhibitor, full curve] |
| Cc1cc(C)c(S(=O)(=O)NCc2ccncc2)c(C)c1 | active: 0.206 µM |
